Some of the results follow.

The assay relates to T1, CTL2-GFP (C. trachomatis L2/434/Bu, GFP-expressing).
T1 construct: L2/434/Bu, GFP-expressing
Further details: species or system HeLa; Intracellular C. trachomatis growth in HeLa cells, bulk GFP fluorescence relative to DMSO. Conditions: bulk GFP, single well; 28.5 h, 10 µM; inhibitor.
For the compound `CC(C)(CNC(=O)c1ccc(=O)n(CC(=O)Nc2ccc(F)cc2)c1)c1cccc(F)c1` [CBK285955], the “% of control remaining” value worked out at 130.579%.

For the compound `O=C(CCN1CCN(CCO)CC1)Nc1ccc(Cl)cc1` [CBK033787], the “% of control remaining” value worked out at 105.42%.

As to `c1ccc(-c2cnc3c(N4CCCC4)nc(-c4cccnc4)cn23)cc1` [CBK092245], the “% of control remaining” value was found to be 110.682%.

With `O=C(CSC1=NC(=O)C(c2ccccc2)C(=O)N1)NC1CCCCC1` (centres unmarked) [CBK263804], the “% of control remaining” value came out at 124.861%.

As to `COc1ccc2c3c1CCC(C)(C)C3COC2CCN1CCN(c2ccc(F)cc2)CC1` (centres unmarked) [CBK024047C], the “% of control remaining” value is reported as 97.0449%.

`O=C(c1ccncc1)N1C2CCC1CC(c1ccc(F)cc1)C2` (centres unmarked) [CBK283763]: the “% of control remaining” value was found to be 111.286%.

As to `Cc1ccc(-c2nccnc2OCCc2c[nH]c3ccccc23)cc1C` [CBK106850], the “% of control remaining” value amounted to 89.1631%.

As for `O=S(=O)(NCc1ccccc1)c1cccc2nonc12` [CBK265692], the “% of control remaining” value was 120.771%.

For `CCC(CC)C(=O)N1CC[C@H]2NC(=O)N(Cc3ccccc3)C(=O)[C@H]21` [CBK289291], the “% of control remaining” value was 114.226%.

Regarding `O=C(O)c1cn(C2CC2)c2cc(N3CCN(C(=O)Cc4ccsc4)CC3)c(F)cc2c1=O` [CBK297142], the “% of control remaining” value is listed as 34.2736%.

Take `CS(=O)(=O)Nc1cc(-c2noc([C@@H]3CCCN3Cc3ccccn3)n2)ccn1` [CBK288885]: the “% of control remaining” value is 134.415%.

As for `CCOC(=O)c1c(NC(=O)CCC(=O)O)sc2c1CCCCC2` [CBK262648], the “% of control remaining” value was 100%.

As for `Cc1ccsc1C(=O)N1CCC(c2nn(C)c3ncccc23)CC1` [CBK285102], the “% of control remaining” value is listed as 120.506%.

`O=C(c1ccccc1Cl)N1CCN(c2ccc([N+](=O)[O-])c(NCc3cccnc3)c2)CC1` [CBK265866]: the “% of control remaining” value stood at 90.5269%.

Regarding `COCCn1c(SCc2c(C)nc3ccccn23)nc(C)c1C` [CBK305212], the “% of control remaining” value came out at 136.138%.

Take `CC(C)c1ccc(S(=O)(=O)NC(C#N)c2ccccc2)cc1` (centres unmarked) [CBK044403]: the “% of control remaining” value was determined as 95.6121%.

Turning to `O=C(N/N=C/c1ccc([N+](=O)[O-])cc1)c1ccc(O)cc1O` [CBK261591], the “% of control remaining” value is on record as 99.4102%.

In the case of `CC(C)[C@@H](CO)n1c(=O)[nH]c2ncc(-c3ccco3)nc21` [CBK065018], the “% of control remaining” value was 107.846%.

Regarding `CC(=O)Nc1ccc2nc(NC(=O)c3ccc(C)cc3)sc2c1` [CBK287304], the “% of control remaining” value is on record as 139.86%.

Turning to `O=C(Nc1ccccc1)N(Cc1nc(-c2ccccc2)no1)C1CCCCC1` [CBK269830], the “% of control remaining” value is given as 123.907%.

As for `CCCCSc1sc(C(=O)O)c(-c2ccc(Cl)cc2)c1C#N` [CBK122551], the “% of control remaining” value turned out to be 94.2275%.

`O=C1CCC[C@]2(CN(C(=O)C3CC3)C[C@H]2c2ccccc2F)N1` [CBK283357]: the “% of control remaining” value is listed as 128.559%.

Consider `COc1cc(C)ccc1S(=O)(=O)Nc1cc(OC2CCNCC2)c2occc2c1` [CBK074192C], for which the “% of control remaining” value turned out to be 126.465%.

Turning to `O=C(O)c1cc(C=Cc2ccc(OC(F)F)cc2)nc2ccccc12` [CBK297532], the “% of control remaining” value stood at 158.888%.

For the compound `Cn1ncnc1CCNC(=O)N1CCCN(Cc2cccs2)CC1` [CBK307670], the “% of control remaining” value amounted to 78.1275%.

As for `COc1cc(-c2nnc(CSCc3n[nH]c(=O)[nH]3)o2)cc(OC)c1OC` [CBK299814], the “% of control remaining” value is listed as 120.747%.

Regarding `OCC1CCCN(Cc2c(C3CCCC3)[nH]c3ncccc23)C1` (centres unmarked) [CBK285332], the “% of control remaining” value is recorded as 164.04%.

Turning to `CCCCc1ccc(N2C(=O)CC(Nc3ccc(C(=O)O)cc3)C2=O)cc1` (centres unmarked) [CBK296972], the “% of control remaining” value was found to be 92.3882%.

For the compound `COc1ccc(C(NC(=O)N(C(C)C)C(C)C)c2nccn2C)cc1` (centres unmarked) [CBK283568], the “% of control remaining” value worked out at 87.2626%.

As for `Cn1cc(C(NC(=O)c2cn3ccsc3n2)C2CC(O)C2)cn1` (centres unmarked) [CBK307428], the “% of control remaining” value turned out to be 127.193%.

As for `Cc1c(C(N)=O)sc2ncn(CCc3ccccc3)c(=O)c12` [CBK268492], the “% of control remaining” value turned out to be 134.37%.

On to `CCOc1ccc(-c2ccnc(N3CCOC(CN)C3)n2)cc1C(=O)O` (centres unmarked) [CBK307644], for which the “% of control remaining” value was 115.543%.

`Clc1ccc(OC/C=C2\Oc3ccc(Cl)cc3C2N2CCOCC2)c(Cl)c1` (centres unmarked) [CBK262753]: the “% of control remaining” value was 100%.

On to `Nc1ccc2c(-c3cc(F)cc(F)c3)ccnc2n1` [CBK067638], for which the “% of control remaining” value is given as 97.5157%.

Take `CS(=O)(=O)N(Cc1ccco1)Cc1cc2ccccc2nc1O` [CBK269434]: the “% of control remaining” value is listed as 94.4612%.

Take `Cc1c(CN(C)CC(=O)Nc2cccc(C(F)(F)F)c2)cnn1C` [CBK304341]: the “% of control remaining” value is 114.261%.

Turning to `NC(=O)c1ccc(NC(=O)N2CCN(CCN3CCOCC3)CC2)cc1` [CBK155831], the “% of control remaining” value is on record as 153.761%.

Regarding `CC(C)C[C@@H]1N[C@H](C(=O)NCC2CCOCC2)Cc2c[nH]c3cccc1c23` [CBK289427], the “% of control remaining” value amounted to 135.418%.

With `O=C(C1=Cc2ccccc2OC1)N1CCC(c2ccncc2)CC1` [CBK282339], the “% of control remaining” value is on record as 75.697%.

With `O=C1CCCN1CCCNC(=O)N1CCCC(CO)C1` (centres unmarked) [CBK156063], the “% of control remaining” value was determined as 156.42%.

`NC(=O)c1cccnc1-c1nc2ccccc2s1` [CBK287930]: the “% of control remaining” value was determined as 152.671%.

For `Cc1cc(C)c(C)c(S(=O)(=O)N(CCO)CCO)c1C` [CBK269082], the “% of control remaining” value is reported as 125.446%.

Turning to `FC(F)(F)c1nc2ccccc2nc1SCCOc1ccccc1` [CBK103726], the “% of control remaining” value amounted to 116.781%.

With `O=C(O)c1cccc(-c2cnc(NCC3CC3)c(C(=O)NCC(F)(F)F)c2)c1` [CBK106420], the “% of control remaining” value is listed as 98.2081%.

In the case of `Cn1nccc1CCC(=O)N1CC[C@H]2NC(=O)c3ccccc3OCCCCC[C@H]2C1` [CBK292028], the “% of control remaining” value was 121.455%.

On to `COc1cccc(C2(NC(=O)CCn3nccc3C)CCCC2)c1` [CBK283601], for which the “% of control remaining” value came out at 107.792%.

Regarding `CCOC(=O)CC1C(=O)NCCN1C/C=C/c1ccccc1` (centres unmarked) [CBK269922], the “% of control remaining” value came out at 121.697%.

In the case of `CCn1cc(S(=O)(=O)NCc2ccc3[nH]c4c(c3c2)CCCC4)cn1` [CBK307225], the “% of control remaining” value is 141.459%.

As to `O=C(NCC1Cc2ccccc2O1)c1ccc(Br)cc1Cl` (centres unmarked) [CBK298323], the “% of control remaining” value is 95.7868%.

Take `COc1ccc(CC(=O)N2CCCC(c3nccnc3-c3cccc(C)c3)C2)cc1` (centres unmarked) [CBK286137]: the “% of control remaining” value is reported as 122.705%.

Regarding `O=C(C1CCC1)N1C2CCC1Cn1c(nc3ccccc3c1=O)C2` (centres unmarked) [CBK284453], the “% of control remaining” value amounted to 136.481%.

On to `COc1ccc(NS(=O)(=O)c2ccc(C)cc2)cn1` [CBK010484], for which the “% of control remaining” value amounted to 135.662%.

`COc1cc(C(=O)NN)cc(OC)n1` [CBK012275]: the “% of control remaining” value is given as 131.793%.

Consider `Clc1ccc(CN2CCCN(c3nccc(OCC4COc5ccccc5O4)n3)CC2)cc1` (centres unmarked) [CBK084038], for which the “% of control remaining” value was determined as 96.3462%.

For the compound `Cc1cc(C)cc(NC(=O)C2CC(=O)N=C(NCc3ccccc3)N2)c1` (centres unmarked) [CBK269054], the “% of control remaining” value amounted to 139.89%.

For `O=C(CC1NC(=O)N(C2CCCCC2)C1=O)Nc1cccc(CCc2ccncc2)c1` (centres unmarked) [CBK285563], the “% of control remaining” value is 135.479%.

Regarding `Cc1nnc(SCc2nc3ccccc3c(=O)[nH]2)[nH]1` [CBK267830], the “% of control remaining” value is listed as 126.05%.

Turning to `CC(=O)Nc1cc2nc3ccccc3nc2cc1NC(C)=O` [CBK261018], the “% of control remaining” value worked out at 118.364%.

As to `COC(=O)CN1C(c2ccccc2O)Nc2ccc(Br)cc2C1c1ccccc1` (centres unmarked) [CBK263133], the “% of control remaining” value is 114.409%.

For the compound `CC(=O)N1CCc2ccc(S(=O)(=O)n3ccc4c(N5CCNCC5)cccc43)cc2C1` [CBK001632C], the “% of control remaining” value amounted to 70.8164%.

For `Cc1ccc(S(=O)(=O)NCCOc2ccccc2)c(C)c1NS(C)(=O)=O` [CBK268210], the “% of control remaining” value is 128.423%.

On to `COc1ccc(OCC(=O)N2CCN(C3CCC(c4ccccc4)CC3)CC2)cc1` (centres unmarked) [CBK263459], for which the “% of control remaining” value stood at 106.649%.

As for `c1ccc(C(Oc2nccnc2-c2ccc3c(c2)OCO3)c2ccccc2)cc1` [CBK106707], the “% of control remaining” value is reported as 93.5935%.

Consider `COc1cc2c(cc1-c1nccn1CC1CN(C(C)=O)CCO1)CCC2` (centres unmarked) [CBK306850], for which the “% of control remaining” value is 130.156%.

Consider `O=C(c1ccc(F)cc1)N1C[C@@H](c2ccsc2)[C@@H]2CN(Cc3cccc(F)c3)CC[C@@H]21` [CBK285640], for which the “% of control remaining” value was found to be 135.625%.

Regarding `COc1cccc(C2(NC(=O)Cn3nc(C)cc3C)CCCC2)c1` [CBK283648], the “% of control remaining” value was 77.4747%.

Regarding `CCOC(=O)C1CCCCN1Cc1ccc(O)c(OC)c1` (centres unmarked) [CBK261541], the “% of control remaining” value is 107.732%.

In the case of `O=C(O)c1c[nH]nc1-c1ccc(Br)cc1` [CBK266368], the “% of control remaining” value was 182.685%.

Consider `CCn1ncc2c(C(=O)NC(C)COC)cc(-c3cccs3)nc21` (centres unmarked) [CBK304955], for which the “% of control remaining” value worked out at 114.783%.

`Oc1ccc(-c2nccnc2NCCc2ccncc2)cc1` [CBK037302]: the “% of control remaining” value came out at 139.03%.

In the case of `CCNC(=O)CN1CCN(C(=O)C(C)(C)c2cccc(C#N)c2)CC1` [CBK306141], the “% of control remaining” value is 115.386%.

On to `Cn1c2ccccc2c2nnc(NCCCCO)nc21` [CBK023366], for which the “% of control remaining” value worked out at 146.957%.

Consider `COc1ncc(-c2nccnc2NCC(C)O)c(OC)n1` (centres unmarked) [CBK036970], for which the “% of control remaining” value was 147.241%.

On to `COCc1c(Br)c(C)nc(OCC(=O)O)c1C#N` [CBK266532], for which the “% of control remaining” value is recorded as 128.462%.

For `CC(=O)c1ccc(-c2nccnc2N[C@@H](CO)C(C)C)s1` [CBK037404], the “% of control remaining” value was determined as 124.853%.

Turning to `O=C(Nc1ccccc1O)c1cc(S(=O)(=O)N2CCCCCC2)ccc1Cl` [CBK264554], the “% of control remaining” value was determined as 98.1527%.

`C[C@]12CN(CC3CC=CCC3)C[C@H]1C(=O)Nc1ccccc1C(=O)N2` (some centres unmarked) [CBK284738]: the “% of control remaining” value is 80.0603%.

Regarding `C[S+]([O-])CCNC(=O)c1cc2c(Cl)cccc2[nH]1` (centres unmarked) [CBK283304], the “% of control remaining” value came to 129.921%.

For the compound `Brc1cn2ccnc2c(N2CCCC2)n1` [CBK085449], the “% of control remaining” value is given as 115.741%.

On to `COc1cc(Br)c(-c2nnn[nH]2)cc1OC` [CBK270093], for which the “% of control remaining” value is on record as 110.83%.

The record behind these values is publication PMC12040169 (PLOS Biology, 2025).
